Data taken from patent USRE49026.
Results are given in words; binding and its absence hold for the method and conditions named. Some binding calls cover weakened binding; strength is not graded here. For part of these data: Tags and fused reporters may be left off the sequences shown.

Sequences of proteins named here, by UniProt entry; tags and fusion partners are left off. A change or cut given only in a name is not applied to a line headed by its entry. Residues count along the entry.
UniProt Q5VWK5: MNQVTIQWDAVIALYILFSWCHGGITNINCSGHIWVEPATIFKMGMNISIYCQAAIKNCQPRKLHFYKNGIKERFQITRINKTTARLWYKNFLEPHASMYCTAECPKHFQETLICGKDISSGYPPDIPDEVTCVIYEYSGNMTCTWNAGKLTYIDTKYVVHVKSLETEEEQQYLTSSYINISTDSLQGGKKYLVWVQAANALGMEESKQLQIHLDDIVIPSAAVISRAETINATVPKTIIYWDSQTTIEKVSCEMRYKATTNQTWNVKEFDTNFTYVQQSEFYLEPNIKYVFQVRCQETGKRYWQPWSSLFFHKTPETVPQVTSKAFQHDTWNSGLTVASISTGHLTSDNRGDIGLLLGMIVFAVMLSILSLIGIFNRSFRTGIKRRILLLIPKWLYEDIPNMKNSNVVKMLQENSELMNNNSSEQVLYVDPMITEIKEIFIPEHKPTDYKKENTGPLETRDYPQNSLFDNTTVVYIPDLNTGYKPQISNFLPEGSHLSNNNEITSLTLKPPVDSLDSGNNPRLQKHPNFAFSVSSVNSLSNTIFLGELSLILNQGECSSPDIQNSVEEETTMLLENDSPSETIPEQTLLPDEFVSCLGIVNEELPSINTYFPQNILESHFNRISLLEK
human IL-23R expressed on the cell surface: residues 24-629 of Q5VWK5
recombinant human IL-23R/Fc chimera: residues 24-353 of Q5VWK5

How the values were obtained:
[1] = target: recombinant human IL-23R/Fc chimera (human) (UniProt Q5VWK5); experiment: phage ELISA on coated IL-23R/Fc, anti-M13 detection
[2] = target: recombinant human IL-23R/Fc chimera (human) (UniProt Q5VWK5); experiment: phage display panning, protein A capture
[3] = target: human IL-23R expressed on the cell surface (human) (UniProt Q5VWK5); experiment: flow cytometry on DB cells treated with IL-23R siRNA or control siRNA
[4] = target: human IL-23R expressed on the cell surface (human) (UniProt Q5VWK5); experiment: flow cytometry on DB cells, FIG. 22 legend
[5] = target: human IL-23R expressed on the cell surface (human) (UniProt Q5VWK5); experiment: flow cytometry on DB cells, 0.1, 0.5 and 1 µg biotinylated no. 1-Fc

Binder | binding [1] | binding [2] | binding [3] | binding [4] | binding [5]
GWKDYWTTFQLR (peptide, not shown: large carriers) [M13 phage displaying polypeptide no. 14] | binds | binds | – | – | –
GWKDYWTTFQLR (peptide, not shown: large carriers) [M13 phage displaying polypeptide no. 24] | – | binds | – | – | –
SGASWVQYWVQR (Fc fusion, not shown: a dimerising Fc or GST) [polypeptide no. 1-Fc fusion protein] | – | – | binds | binds | binds
